Measurements from PubChem BioAssay AID2551 (National Center for Advancing Translational Sciences (NCATS), 2010).
Out of some 310,000 compounds screened, about 17,000 (5.5%) were called active. The inconclusive results got no clear call from the source; some entries with a clear call stand among them for comparison. Calls come from the whole dose curve; as a rule, active = well fitted inhibition curve with a large enough effect; inconclusive = small, poorly fitted or top-dose-only effect, or effect the other way; inactive = no such curve, though single readings can be large or run the other way. Where the call is inconclusive, the potency comes from a doubtful curve fit.

Sequences of proteins named here, by UniProt entry; tags and fusion partners are left off. A change or cut given only in a name is not applied to a line headed by its entry.
UniProt P51450: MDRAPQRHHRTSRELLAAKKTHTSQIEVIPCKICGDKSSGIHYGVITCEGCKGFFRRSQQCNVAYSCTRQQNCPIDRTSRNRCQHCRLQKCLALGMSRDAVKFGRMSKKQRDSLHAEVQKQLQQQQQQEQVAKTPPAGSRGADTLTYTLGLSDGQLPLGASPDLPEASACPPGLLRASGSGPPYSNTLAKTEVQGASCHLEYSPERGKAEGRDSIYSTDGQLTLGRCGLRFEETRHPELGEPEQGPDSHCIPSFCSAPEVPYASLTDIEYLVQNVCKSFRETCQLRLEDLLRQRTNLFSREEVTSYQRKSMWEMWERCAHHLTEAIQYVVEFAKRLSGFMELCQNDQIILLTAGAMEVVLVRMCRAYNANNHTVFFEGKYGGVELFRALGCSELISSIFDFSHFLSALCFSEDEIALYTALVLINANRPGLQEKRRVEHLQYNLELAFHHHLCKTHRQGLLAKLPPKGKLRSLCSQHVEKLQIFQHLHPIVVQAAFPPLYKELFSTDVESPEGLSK

Target: Nuclear receptor ROR-gamma (Mus musculus) (UniProt P51450)
Assay: qHTS for inhibitors of ROR gamma transcriptional activity; note: nearly all actives have a fitted effect of over 60% in size
Settings: Drosophila S2 Gal4-RORgamma UAS-luciferase reporter, 20 h; series mostly up to 53.6 µM
How it was run: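 A Gal4/UAS one-hybrid system in insect cells: metallothionein-promoter Gal4–ROR gamma fusion plus Photinus luciferase reporter. Copper sulfate 700 uM final, 20 hr ambient incubation, luminescent detection after 10 min with reagent.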
Potency is the fitted concentration of half-maximal effect.

Potency, active:
CC(C)N=C1NN=C(c2ccc(Cl)c(Cl)c2)CS1 10 µM
CCOc1ccc(NC(=S)Nc2cc(C)[nH]n2)cc1 3.16 µM
CCC(=O)NNc1nc2c(C)cc(C)cc2s1 12.6 µM
Cc1nn(-c2ccccc2)cc1C(=S)Nc1ccccc1 11.2 µM
Cc1ccc(N(Cc2cc(=O)[nH]c3ccccc23)C(=O)CCl)cc1 15.8 µM
COc1cc(/C=N/O)ccc1OCc1ccc(Cl)cc1 1.12 µM

Potency, inactive:
Cc1noc(/C=C/c2ccco2)c1S(=O)(=O)N1CCC(C(=O)NCc2ccco2)CC1
O=C(NNC(=S)NC(=O)c1ccccc1[N+](=O)[O-])c1ccccc1Cl
COc1ccc(-c2nn3c(=O)c(C)nnc3s2)cc1
COc1cccc(Nc2ncc3nc(C)c(=O)n(-c4ccccc4)c3n2)c1
CCOCCn1c(CC)nc2ccccc21
COc1ccc(-c2cc(-c3ccccc3)nc(N3CCCC3)n2)cc1OC
CCCOc1ccc(OCCOCCN2CCc3ccccc3C2)cc1
Cc1ccccc1-n1nc2c(c1NC(=O)C1CCCC1)CS(=O)(=O)C2
COCCCN(C(=S)Nc1cccc(Cl)c1)C(C)c1ccncc1 (stereo unspecified)
CCN(CCCNC(=O)C1c2ccccc2C(=O)N(CCOC)C1c1ccc(F)cc1)Cc1ccccc1 (stereo unspecified)

Potency, inconclusive:
CC(NC(=O)c1cc(COc2cccc(C(F)(F)F)c2)on1)c1nccs1 (stereo unspecified) 14.1 µM [activator, single point]
Cc1nnc2n(c1=O)C(CS(=O)(=O)c1ccccc1)CS2 (stereo unspecified) 22.4 µM [inhibitor, single point]
CCc1nc2c3cnn(-c4cc(Cl)ccc4C)c3ncn2n1 8.91 µM [inhibitor, partial curve, poor fit]
COc1ccc(NC(=O)CSc2nc(N)c3cc4c(nc3n2)CCCC4)cc1 2.82 µM [activator, full curve]
Oc1ccccc1C(Nc1nccs1)c1ccc2cccnc2c1O (stereo unspecified) 2 µM [inhibitor, full curve]
Cc1ccc(/C=C(\C#N)c2nn(-c3ccccc3)c(N)c2C#N)cc1 8.91 µM [activator, partial curve]
O=C(c1cccc2ccccc12)C1CCCN(C(=O)c2ccc(N3CCOCC3)cc2)C1 (stereo unspecified) 35.5 µM [activator, single point]
CCN(C(=O)c1cc2cccc(OC)c2oc1=O)C1CCCCC1 0.224 µM [activator, full curve]
O=C(Nc1ccccc1F)c1cc(S(=O)(=O)N2CCCCC2)cs1 7.94 µM [activator, partial curve, poor fit]
CN1N=C(C(=O)NC2CCCc3c2cnn3-c2ccc(F)cc2F)CCC1=O (stereo unspecified) 14.1 µM [activator, partial curve]
COc1ccc(NC(=O)n2ncc3c(C)cccc32)cc1 1 µM [inhibitor, partial curve]
C/C(=N/NC(=O)c1ccc(C)nc1)c1ccc2c(c1)CCCC2 35.5 µM [inhibitor, single point]
CC(=O)n1cc(N(C(=O)CCl)c2ccccc2)c2ccccc21 12.6 µM [inhibitor, single point]
COc1cccc(/C(O)=C/c2nc3ccc(C(=O)NCCc4ccc(Cl)cc4)cc3[nH]c2=O)c1 35.5 µM [inhibitor, single point]
Cc1cccc(NC(=O)CSCC(=O)NCc2cccc(C(F)(F)F)c2)c1 17.8 µM [activator, partial curve, poor fit]
Clc1ccc(-c2nn3c(-c4cccc(Cl)c4)nnc3s2)cc1 6.31 µM [inhibitor, single point]
CCC(C)c1ccccc1NC(=O)COC(=O)c1ccc(C)c(NC(=O)c2ccco2)c1 (stereo unspecified) 0.001 µM [inhibitor, full curve, poor fit]
COc1cc([N+](=O)[O-])cc(/C=N/NC(=O)Cn2nc(C)cc2C)c1O 25.1 µM [inhibitor, single point]
O=C(CNc1cccc([N+](=O)[O-])c1)NCCCc1ccccc1 17.8 µM [activator, single point]
CC(C)(C)NC(=O)CSc1nncn1NCc1c(Cl)cccc1Cl 5.01 µM [inhibitor, partial curve]
C/C(CC(=O)Nc1ccc(OCc2ccccc2)cc1)=N\NC(=O)C(=O)Nc1ccccc1C 35.5 µM [inhibitor, single point]
Cc1csc(NC(=O)CCN2C(=O)c3ccccc3S2(=O)=O)n1 0.126 µM [inhibitor, full curve, poor fit]
CCCc1nc2ccccc2c(C(=O)OCC(=O)Nc2ccc(S(=O)(=O)N3CCOCC3)cc2)c1CC 20 µM [inhibitor, single point]
Cc1sc2ncnc(SCC#N)c2c1C 2.82 µM [inhibitor, single point]
C[n+]1cc[nH]c1SCC(=O)c1ccc(Cl)cc1 35.5 µM [inhibitor, single point]
O=C(COC(=O)c1ccc([N+](=O)[O-])s1)NC(=O)NCc1ccccc1 17.8 µM [inhibitor, partial curve, poor fit]
COc1ccc(CC(=O)NCc2n[nH]c(=S)n2-c2cccc(Cl)c2)cc1 10 µM [inhibitor, partial curve]
Cc1ccc(C(=O)NCCOc2ccc(Cl)cc2)cc1 11.2 µM [activator, partial curve]
Cn1cnnc1SCC(=O)Nc1cccc(S(=O)(=O)N2CCCCCC2)c1 17.8 µM [activator, partial curve]
COc1ccc2c(c1)-c1c(ssc1=S)C(C)(C)N2C(=O)CSC1=NCCS1 22.4 µM [inhibitor, partial curve, poor fit]

Part of the list above in order of SMILES length, low to high.
Potency, inconclusive:
COc1ccc(NC(=O)n2ncc3c(C)cccc32)cc1 1 µM [inhibitor, partial curve]
Cc1nnc2n(c1=O)C(CS(=O)(=O)c1ccccc1)CS2 (stereo unspecified) 22.4 µM [inhibitor, single point]
COc1ccc(CC(=O)NCc2n[nH]c(=S)n2-c2cccc(Cl)c2)cc1 10 µM [inhibitor, partial curve]
